# Measured data: PubChem BioAssay AID652259 (Drosophila RNAi Screening Center, 2013)
# Test: 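Identify new Wingless signalling regulators in fly cells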 (primary screen)
# System: Drosophila clone 8 imaginal disc epithelial cells
# Reagent: long dsRNA against Drosophila genes
# Conditions: pathway stimulated by co-transfected Wingless expression plasmid
# Measurement: 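Dual luciferase reads per well after Wingless plasmid stimulation: reporter firefly light and Renilla control light; activity is firefly divided by Renilla, a ratio not deposited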
# Direction: firefly reporter light: higher = more Wg reporter light, before normalisation; Renilla control light: higher = more transfected or surviving cells
# Rule for the call: 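Strong candidates differ from their plate mean by at least two out of four per-plate statistical tests; weak candidates meet just one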
# Calls: active = candidate regulator (raises or lowers reporter); inactive = not a candidate
# In all, the deposit lists about 22,000 reagents; below is an unselected part of those that have a named target and a result. In the full data, 233 (1.1%) are marked active. 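Light values are raw, unnormalised plate reads; the ratio scores behind the reporter calls were not deposited.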 The numbers tell different reagents against one gene apart. A plus sign joins genes that one reagent is predicted to hit. Not given: the amount of reagent, the time to read-out, the dose of the treatment.
Gene,dsRNA no.,"reporter change call, replicate 1","firefly reporter light, replicate 1","firefly reporter light, replicate 2","Renilla control light, replicate 1","Renilla control light, replicate 2",activity call
CG8389,1,,12289,,4227,,inactive
CG8389,2,,5.63e5,5.81e5,1.73e5,2.41e5,inactive
Yif1,1,,4282,,2091,,inactive
CG17672,1,,2281,,361,,inactive
CG17672,2,,10007,,3340,,inactive
CG32638,1,,6297,,1285,,inactive
CG13999,1,,2081,5483,885,933,inactive
CG15082,1,,7108,,2653,,inactive
Obp57c,1,,5147,,1610,,inactive
Octalpha2R,1,,3328,,1019,,inactive
Octalpha2R,2,,8989,,1754,,inactive
CG14664,1,,12144,,2482,,inactive
CG4709,1,,7932,,1788,,inactive
CG33627,1,,19878,,17766,,inactive
Cpr35B,1,,4036,8932,1773,4521,inactive
Cpr35B,2,,7.23e5,7.48e5,2.21e5,2.75e5,inactive
CG15916,1,,16736,,7431,,inactive
CG31921,1,,25137,,12336,,inactive
CG7785,1,,11716,,2998,,inactive
Cyp49a1,1,,4500,11272,841,3021,inactive
Cyp49a1,2,,3144,7712,845,2425,inactive
CG8852,1,,1616,5708,829,1445,inactive
CG31249,1,,13040,,2214,,inactive
Dus3,1,,2061,8000,757,3216,inactive
Sp212,1,,5.04e5,4.86e5,1.77e5,1.74e5,inactive
Mst98Ca,1,,3032,7738,1472,1533,inactive
Ets65A,1,,967,7160,805,2756,inactive
Ets65A,2,,2784,,1851,,inactive
Ets65A,3,,5761,,2706,,inactive
Secp43,1,,1488,6683,800,3032,inactive
Mulk,1,,6592,,2181,,inactive
LS2,1,,2936,5592,348,2251,inactive
CG18368,1,,6528,,2576,,inactive
Sid,1,,8212,,2524,,inactive
CG33169,1,,20108,,6176,,inactive
Rabex-5,1,,16619,,4305,,inactive
EMC5,1,,2677,8166,774,2915,inactive
Tango11,1,,17507,,10297,,inactive
Tango11,2,,15136,,8913,,inactive
Sps2,1,,1449,5824,781,2745,inactive
CG15332,1,,12192,,6473,,inactive
CG34135 + Nasp + CG11768,1,,20869,,3140,,inactive
CG34135 + Nasp + CG11768,2,,19068,,4853,,inactive
l(3)80Fj,1,,15302,,9101,,inactive
pan,1,Wg reporter activity lowered,338,448,956,1590,active
pan,2,,4.61e5,4.30e5,1.62e5,1.24e5,inactive
CG5348,1,,7786,,3009,,inactive
ppl,1,,7549,,2475,,inactive
PIG-T,1,,27594,,11300,,inactive
CG17600,1,,22592,,14740,,inactive
CG17600,2,,14301,,7202,,inactive
CG17600,3,,6.35e5,5.92e5,1.89e5,1.46e5,inactive
Cpr50Cb,1,,6871,,2592,,inactive
CG6012,1,,3372,5825,1186,2769,inactive
crn,1,,21303,,11672,,inactive
crn,2,,23405,,12260,,inactive
crn,3,,3248,6048,629,1856,inactive
Pburs,1,,3200,9234,1448,3355,inactive
CG6983,1,,7995,,3008,,inactive
hbn,1,,2129,4836,171,386,inactive
hbn,2,,4450,8968,1020,4225,inactive
hbn,3,,4327,9256,762,2135,inactive
hbn,4,,3.06e5,2.88e5,1.43e5,1.15e5,inactive
CG4741,1,,3041,9664,901,2832,inactive
CG4741,2,,2137,6858,738,2841,inactive
dan,1,,1849,6905,704,1840,inactive
CG3164,1,,1984,4992,996,2008,inactive
mRpS21,1,,4517,,1221,,inactive
mRpS21,2,,3.17e5,3.30e5,1.45e5,1.22e5,inactive
CG8036,1,,11687,,3747,,inactive
CG8249,1,,4914,,2105,,inactive
CG5653,1,,1101,5760,1351,1609,inactive
Tat,1,,21622,,7908,,inactive
CG43367,1,,6929,,2929,,inactive
CG43367,2,,5318,,2436,,inactive
CG43367,3,,4841,,2709,,inactive
CG43104 (retired record),1,,17057,,12486,,inactive
CG12817 + CG12420,1,,4.58e5,4.48e5,2.16e5,2.64e5,inactive
hkb,1,,18012,7.45e5,5885,3.32e5,inactive
Pex11c,1,,19005,,19584,,inactive
CG8927,1,,13864,,2786,,inactive
Cyp4e3,1,,1812,3413,791,2240,inactive
CG12963,1,,18764,,11292,,inactive
CG12963,2,,9191,,3074,,inactive
cype,1,,2556,11920,829,3061,inactive
Hcs,1,,4848,,1721,,inactive
Hcs,2,,8648,,2007,,inactive
cocoon,1,,7440,,3416,,inactive
CG2574,1,,25140,,9628,,inactive
Vps16B,1,,8109,,1995,,inactive
asRNA:CR42547 + CG15674,1,,2256,6625,788,2392,inactive
CG11226,1,,9168,,3616,,inactive
GstT4,1,,3733,5669,859,2416,inactive

Part of the list above in another layout.
{"Gene":"hbn","dsRNA no.":3,"firefly reporter light, replicate 1":4327,"firefly reporter light, replicate 2":9256,"Renilla control light, replicate 1":762,"Renilla control light, replicate 2":2135,"activity call":"inactive"}
{"Gene":"hbn","dsRNA no.":4,"firefly reporter light, replicate 1":3.06e5,"firefly reporter light, replicate 2":2.88e5,"Renilla control light, replicate 1":1.43e5,"Renilla control light, replicate 2":1.15e5,"activity call":"inactive"}
{"Gene":"CG4741","dsRNA no.":1,"firefly reporter light, replicate 1":3041,"firefly reporter light, replicate 2":9664,"Renilla control light, replicate 1":901,"Renilla control light, replicate 2":2832,"activity call":"inactive"}
{"Gene":"CG4741","dsRNA no.":2,"firefly reporter light, replicate 1":2137,"firefly reporter light, replicate 2":6858,"Renilla control light, replicate 1":738,"Renilla control light, replicate 2":2841,"activity call":"inactive"}
{"Gene":"dan","dsRNA no.":1,"firefly reporter light, replicate 1":1849,"firefly reporter light, replicate 2":6905,"Renilla control light, replicate 1":704,"Renilla control light, replicate 2":1840,"activity call":"inactive"}
{"Gene":"CG3164","dsRNA no.":1,"firefly reporter light, replicate 1":1984,"firefly reporter light, replicate 2":4992,"Renilla control light, replicate 1":996,"Renilla control light, replicate 2":2008,"activity call":"inactive"}
{"Gene":"mRpS21","dsRNA no.":1,"firefly reporter light, replicate 1":4517,"Renilla control light, replicate 1":1221,"activity call":"inactive"}
{"Gene":"mRpS21","dsRNA no.":2,"firefly reporter light, replicate 1":3.17e5,"firefly reporter light, replicate 2":3.30e5,"Renilla control light, replicate 1":1.45e5,"Renilla control light, replicate 2":1.22e5,"activity call":"inactive"}
{"Gene":"CG8036","dsRNA no.":1,"firefly reporter light, replicate 1":11687,"Renilla control light, replicate 1":3747,"activity call":"inactive"}
{"Gene":"CG8249","dsRNA no.":1,"firefly reporter light, replicate 1":4914,"Renilla control light, replicate 1":2105,"activity call":"inactive"}
{"Gene":"CG5653","dsRNA no.":1,"firefly reporter light, replicate 1":1101,"firefly reporter light, replicate 2":5760,"Renilla control light, replicate 1":1351,"Renilla control light, replicate 2":1609,"activity call":"inactive"}
